These are yes or no findings as the source states them, for the method shown. Binding seen in cells or lysates may run through a third protein. Some entries that bind do so weakly or less than the wild type.

Protein sequences, listed by entry. Tags and fused reporters are not part of them. Lines headed by an entry give the natural chain unless they say otherwise; changes in a name come on top.
UniProt Q9Z0U4: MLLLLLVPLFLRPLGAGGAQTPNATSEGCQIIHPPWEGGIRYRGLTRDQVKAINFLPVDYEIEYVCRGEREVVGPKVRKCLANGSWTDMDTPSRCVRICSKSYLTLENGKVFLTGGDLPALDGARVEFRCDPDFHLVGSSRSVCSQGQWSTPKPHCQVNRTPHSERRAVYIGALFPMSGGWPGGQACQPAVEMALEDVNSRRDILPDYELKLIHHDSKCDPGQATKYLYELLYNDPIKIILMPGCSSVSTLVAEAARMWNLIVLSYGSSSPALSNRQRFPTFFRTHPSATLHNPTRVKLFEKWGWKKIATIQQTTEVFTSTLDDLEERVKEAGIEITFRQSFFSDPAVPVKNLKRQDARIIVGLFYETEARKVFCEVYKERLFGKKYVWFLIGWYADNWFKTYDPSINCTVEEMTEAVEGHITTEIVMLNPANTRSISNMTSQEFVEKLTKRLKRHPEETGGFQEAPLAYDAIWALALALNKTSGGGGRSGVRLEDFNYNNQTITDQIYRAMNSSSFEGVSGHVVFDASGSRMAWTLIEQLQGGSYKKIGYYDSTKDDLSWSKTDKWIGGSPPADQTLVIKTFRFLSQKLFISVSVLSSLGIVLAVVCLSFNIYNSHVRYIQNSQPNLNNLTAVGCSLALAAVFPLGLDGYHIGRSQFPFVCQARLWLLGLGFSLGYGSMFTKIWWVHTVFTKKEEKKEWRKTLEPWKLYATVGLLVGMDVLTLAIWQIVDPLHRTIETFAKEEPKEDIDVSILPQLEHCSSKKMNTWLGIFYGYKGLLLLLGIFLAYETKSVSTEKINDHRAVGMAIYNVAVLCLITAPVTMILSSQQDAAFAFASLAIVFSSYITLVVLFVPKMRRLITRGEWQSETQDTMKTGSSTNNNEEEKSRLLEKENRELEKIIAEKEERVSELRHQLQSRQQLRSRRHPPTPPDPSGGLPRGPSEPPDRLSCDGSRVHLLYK
UniProt O88871: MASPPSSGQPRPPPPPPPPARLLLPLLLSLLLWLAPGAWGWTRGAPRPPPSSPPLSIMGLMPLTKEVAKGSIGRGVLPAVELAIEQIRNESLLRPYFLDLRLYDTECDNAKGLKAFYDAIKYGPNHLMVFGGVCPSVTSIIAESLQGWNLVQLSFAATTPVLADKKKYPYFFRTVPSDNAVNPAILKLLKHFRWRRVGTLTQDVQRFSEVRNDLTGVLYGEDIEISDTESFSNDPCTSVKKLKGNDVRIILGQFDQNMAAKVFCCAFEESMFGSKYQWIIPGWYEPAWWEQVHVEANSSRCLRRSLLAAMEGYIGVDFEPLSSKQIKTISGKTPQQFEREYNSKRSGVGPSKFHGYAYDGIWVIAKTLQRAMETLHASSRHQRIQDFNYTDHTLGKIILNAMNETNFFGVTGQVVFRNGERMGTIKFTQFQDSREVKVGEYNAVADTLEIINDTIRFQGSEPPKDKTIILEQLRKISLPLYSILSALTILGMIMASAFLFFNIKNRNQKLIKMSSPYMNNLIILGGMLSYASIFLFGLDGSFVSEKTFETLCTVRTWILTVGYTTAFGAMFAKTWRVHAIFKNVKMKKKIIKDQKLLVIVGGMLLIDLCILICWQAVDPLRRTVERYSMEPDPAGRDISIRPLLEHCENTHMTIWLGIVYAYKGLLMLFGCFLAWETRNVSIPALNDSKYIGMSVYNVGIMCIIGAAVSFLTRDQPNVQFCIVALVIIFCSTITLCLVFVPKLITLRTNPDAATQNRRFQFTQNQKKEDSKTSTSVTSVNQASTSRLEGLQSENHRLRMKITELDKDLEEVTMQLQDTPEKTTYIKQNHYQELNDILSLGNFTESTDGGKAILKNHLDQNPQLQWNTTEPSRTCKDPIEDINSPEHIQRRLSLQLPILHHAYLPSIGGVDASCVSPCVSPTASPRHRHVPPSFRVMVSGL

In the assay the target is GABAB receptors (heterodimers of GABAB1 and GABAB2 subunits) (rat (endogenous in cultured cortical neurons)) (UniProt Q9Z0U4+O88871). The assay can be described thus: proximity ligation; in situ PLA (Duolink) in cultured rat cortical neurons with mouse GABAB1 and rabbit MIB2 antibodies; untreated neurons, and neurons treated with glutamate for 15 or 30 min (interaction increased).

B1: E3 ligase Mind bomb-2 (MIB2) (enzyme, UniProt Q68LP1 1-971)
chain: MDLDPHAGVQVGMRVVRGMDWKWGQQDGGEGGVGTVVELGRHGSPSTPDRTVVVQWDQGTRTNYRAGYQGAHDLLLYDNAQIGIRHPNIICDCCKKHGLRGMRWKCRVCFDYDLCTQCYMHNKHDLTHAFERYETSHSRPVTLSPRQGLPRIPLRGIFQGAKVVRGPDWEWGSQDGGEGKTGRVVDIRGWDVETGRSVASVTWADGTTNVYRVGHKGKVDLKCVGEAAGGFYYKEHLPKLGKPAELQRRVSADGQPFQRGDKVKCLLDTDVLRDMQEGHGGWNPRMAEFIGQMGTVHRITDRGDVRVQFNHETRWTFHPGALTKHNSFWVGDVVRVIDDLDTVKRLQAGHGEWTDDMAPALGRVGKVVKVFGDGNLRVAVGGQRWTFSPACLVACRPEEDANLGVAERARENKSAASVPVAGSLSVALDKLRTQKSDPEHPGRLVVEAALGNVARALDLLRRHPEQAGFHPAVDTKNQGRTALQVAAYLGQVELVRLLLQARASVDLLDEEGNTALHYTAMGNQPEATRLLLSAGCGVDAQNGTRSTALHVAVQRGFLEVVKILCEHGCDVNLPDAHADTPLHSAISAGAGASSIVEVLTEVPGIDVTATNSQGFTLLHHASLKGHVLAVRKILARARQLVDAKKEDGFTALHLAALNNHREVAQVLIREGRCDVNVRNRKLQSPLHLAVQQAHLGLVPLLVDAGCNVNTEDEEGDTALHVALQRHQLLPLVADRAGGDPGPLQLLSRLQASGLPGSTELTVGAAVACFLALEGADVSYANHRGRSPLDLATEGRVLKALQGCAQRFRERQAGGGGGVPPGPRHVLSTPNTVTNLHVSGTAGPEAAECLVCSELALLVLFSPCQHRTVCEECARRMKKCIRCQVIISKKLRPDGSEVVNAIQVPGPPRQLVEELQSRYRQMEERITCPICIDSHIRLVFQCGHGACAPCGAALNACPICRQPIRDRIQIFV
In the case of B1, the binding result was “binds”.

Source of the values: publication PMC5076837.
